Data taken from US4481139A (Board of Regents, The University of Texas System, priority 1983, dated 1984).
Some peptides are written in HELM: one residue between dots, names in brackets for other building blocks, links after the first $.

Legend:
[1] = general procedure: Boc solid-phase peptide synthesis; DCC; settings: whole synthesis, HPLC
[2] = general procedure: Boc solid-phase peptide synthesis; amine resin, 0.75 mM NH2/g; DCC; settings: whole synthesis, 206 nm, scale of the general procedure 1 g resin

In the case of “PEPTIDE1{R.P.K.P.Q.Q.[dW].F.[dW].L.L.[am]}$$$$V2.0”, the “purity (crude or final not stated)” value [1] was 97%.

With “PEPTIDE1{R.[dP].K.P.Q.Q.[dW].F.[dW].L.L.[am]}$$$$V2.0” the “purity (crude or final not stated)” value [1] was 95%.

In the case of “PEPTIDE1{[dR].P.K.P.Q.Q.[dW].F.[dW].L.L.[am]}$$$$V2.0”, the “final HPLC purity” value [2] was 98% and the “purity (crude or final not stated)” value [1] was 98%.

For “PEPTIDE1{[dR].[dP].K.P.Q.Q.[dW].F.[dW].L.L.[am]}$$$$V2.0”, the “purity (crude or final not stated)” value [1] was 96%.

With “PEPTIDE1{[dR].[dP].K.P.Q.Q.[dW].F.[dW].L.T.[am]}$$$$V2.0” the “purity (crude or final not stated)” value [1] was 96%.

In the case of “PEPTIDE1{[dR].[dP].K.P.[dF].Q.[dW].F.[dW].L.L.[am]}$$$$V2.0”, the “purity (crude or final not stated)” value [1] was 97%.

With [D-Arg^1,D-Trp^7 ,D-Trp^9,Ile^11 ]--SP the “purity (crude or final not stated)” value [1] was 97%.

In the case of “[D-Phe^5,D-Trp^7,D-Trp^9,Leu^11 ]-SP5-11”, the “purity (crude or final not stated)” value [1] was 98%.
